From patent US6689868 (Dana-Farber, dated 2004)
No constants are given. Whether binding was seen depends on the method and setting. In cells and extracts the contact can be indirect. Some binding calls cover weakened binding; strength is not graded here.

Target: T1, protein tyrosine phosphatase PTP-PEST (endogenous, activated human T cells) (human) (UniProt Q05209)
T1 sequence (looked up): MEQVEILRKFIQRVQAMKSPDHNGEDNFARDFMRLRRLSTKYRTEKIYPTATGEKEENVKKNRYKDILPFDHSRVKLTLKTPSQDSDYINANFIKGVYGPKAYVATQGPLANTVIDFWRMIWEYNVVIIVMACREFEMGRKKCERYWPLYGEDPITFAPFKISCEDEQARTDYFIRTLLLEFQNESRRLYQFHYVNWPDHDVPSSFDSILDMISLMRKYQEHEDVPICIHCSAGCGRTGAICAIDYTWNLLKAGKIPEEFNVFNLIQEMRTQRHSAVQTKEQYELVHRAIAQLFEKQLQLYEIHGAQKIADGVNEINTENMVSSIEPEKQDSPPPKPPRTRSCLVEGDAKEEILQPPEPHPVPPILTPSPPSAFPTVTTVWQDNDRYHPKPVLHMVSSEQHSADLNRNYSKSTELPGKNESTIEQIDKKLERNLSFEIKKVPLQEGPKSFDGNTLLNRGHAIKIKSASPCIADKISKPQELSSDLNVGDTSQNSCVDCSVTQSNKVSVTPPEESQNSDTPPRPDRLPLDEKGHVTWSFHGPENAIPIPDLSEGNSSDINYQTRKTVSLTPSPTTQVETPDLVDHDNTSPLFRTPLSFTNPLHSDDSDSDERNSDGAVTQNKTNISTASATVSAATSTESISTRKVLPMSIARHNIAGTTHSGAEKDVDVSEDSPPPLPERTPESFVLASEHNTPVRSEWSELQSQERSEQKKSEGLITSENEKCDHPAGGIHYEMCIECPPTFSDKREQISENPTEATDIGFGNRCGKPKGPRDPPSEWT
Assay: co-immunoprecipitation with 8C93D8-Sepharose from activated human T cell lysates, anti-PTP-PEST Western blot; prevented by preincubation with soluble 8C93D8, not by mouse IgG

B1: CD2BP1 protein (endogenous, activated human T cells) (other)
chain: MMPQLQFKDAFWCRDFTAHTGYEVLLQRLLDGRKMCKDMEELLRQRAQAEERYGKELVQIARKAGGQTEINSLRASFDSLKQQMENVGSSHIQLALTLREELRSLEEFRERQKEQRKKYEAVMDRVQKSKLSLYKKAMESKKTYEQKCRDADDAEQAFERISANGHQKQVEKSQNKARQCKDSATEAERVYRQSIAQLEKVRAEWEQEHRTTCEAFQLQEFDRLTILRNALWVHSNQLSMQCVKDDELYEEVRLTLEGCSIDADIDSFIQAKSTGTEPPAPVPYQNYYDREVTPLTSSPGIQPSCGMIKRFSGLLHGSPKTTSLAASAASTETLTPTPERNEGVYTAIAVQEIQGNPASPAQEYRALYDYTAQNPDELDLSAGDILEVILEGEDGWWTVERNGQRGFVPGSYLEKL
notes: Endogenous protein
B1 was tested, and the binding was “binds”.
